AC50 data for 40 compounds are collected here from PubChem BioAssay AID493014 (National Center for Advancing Translational Sciences (NCATS), 2011).

The assay in a line: qHTS Assay to Find Inhibitors of Chronic Active B-Cell Receptor Signaling. Conditions: ABC-DLBCL IkBa-CBG/CBR reporter, luminescence ratio (green luciferase fused to IkBa over red control in TMD8 lymphoma cells), 4 h. A digest of the protocol: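 Cell line TMD8 (human ABC DLBCL), stably expressing tet-inducible CBG68-IkBa fusion and CBR; IMDM/0.5% FBS; cpd up to 46 uM; dox induction, 4 h, 37C/5% CO2; dual luminescence; green/red ratio; MG132 control.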
In general terms: In qHTS, concentration-response curves come from the screen itself.

[1] abbreviates: measured here: CBR red luminescence, cell number.
Setting [2] is: measured here: IkBa-CBG green luminescence.

Structures are written as SMILES. The list shows a part of the results. Further columns of the screen follow, without active or inactive calls. Most of these compounds were active or inconclusive in the main read-out, so they are no random draw. Words in brackets tell the shape of the fitted curve; partial curves, single points and poor fits give uncertain potencies.

For orientation: AC50 means the concentration at which the activity in the assay is half-maximal. Take `COc1ccc(CN(C)C(=O)Cc2ccc(OC)c(S(=O)(=O)N3CCOCC3)c2)cc1`: the AC50 under setting [1] is 6.51 µM [rising, partial curve, poor fit].
`Cc1nc2ccc(NC(=O)c3ccc(Cl)c(S(=O)(=O)N(C)c4ccccc4)c3)cc2s1`: the AC50 under setting [1] was 0.461 µM [falling, full curve, poor fit].
As to `O=C(NCCc1ccccc1)C(=O)Nc1ccc([N+](=O)[O-])cc1`, the AC50 under setting [1] was 22.4 µM [rising, single point].
Same read-out and setting: for `CCCCNC(=O)C(C)N(CCN(C)C)C(=O)CCCCCN1C(=O)NC(c2ccc(Cl)cc2)C(C(=O)OCc2ccccc2)=C1C` (stereo not given) the value was 18.4 µM [falling, partial curve, poor fit].
As to `CCN1C/C(=C/c2cccc([N+](=O)[O-])c2)C(=O)/C(=C/c2cccc([N+](=O)[O-])c2)C1`, the AC50 under setting [2] was 29.1 µM [falling, partial curve, poor fit].
On to `Cc1ccc(NC(=O)C(C)c2ccc(-c3ccccc3)c(F)c2)cc1` (stereo not given), for which the AC50 under setting [1] was 29.1 µM [falling, single point].
With `CCOC(=O)CNc1c(-c2ccc(O)cc2)nc2ccccn12`, the AC50 under setting [1] is 4.47 µM [falling, partial curve].
With `COc1ccc(NS(=O)(=O)c2cc(NC(=O)c3ccccc3F)ccc2N2CCCC2)cc1`, under setting [1], the AC50 is 2.51 µM [falling, partial curve, poor fit].
Take `O=C(N/N=C/c1c(F)cccc1Cl)c1cc(C2CC2)[nH]n1`: under setting [1], the AC50 is 10 µM [falling, partial curve].
On to `CN(C)CCN(C(=O)c1ccc(N2C(=O)CCC2=O)cc1)c1nc2cc3c(cc2s1)OCCO3`, for which the AC50 under setting [1] is 10 µM [falling, partial curve].
On to `COC(=O)c1ccccc1S(=O)(=O)N1CCC(NC(=O)c2ccccc2)CC1`, for which the AC50 under setting [1] was 6.31 µM [falling, single point].
On the same count and under the same terms, for `O=C(COC(=O)CC1CCCC1)Nc1cccc(F)c1` the value was 1.84 µM [rising, single point].
Still for that read-out and setting: the value for `O=S(=O)(NCc1nnc2ccccn12)c1ccc(Cl)cc1` was 10.3 µM [falling, partial curve, poor fit]; that for `CCOC(=O)C1CCCN(S(=O)(=O)c2cc(C(=O)OC)n(C)c2)C1` (stereo not given) was 3.16 µM [rising, partial curve, poor fit].
In the case of `CCOc1nc(NC(=O)NS(=O)(=O)c2ccccc2F)nc(-c2ccccc2)n1`, the half-maximal activity concentration (AC50) under setting [1] is 0.501 µM [falling, full curve].
In the case of `O=C(c1ccccc1F)N1CCOCC1`, under setting [1], the AC50 is 6.31 µM [rising, single point].
In the case of `Cc1cccc(OCCCn2c(=O)sc3ccccc32)c1`, the AC50 under setting [1] was 3.98 µM [rising, partial curve].
Consider `O=C(Nc1cccc(Cl)c1)c1ccc2c(c1)OCCO2`, for which the AC50 under setting [1] was 20 µM [falling, partial curve, poor fit].
Still for that read-out and setting: for `COc1cscc1C(N)=O` the value was 2.51 µM [rising, full curve, poor fit]; for `Cc1ccc(C(=O)O)c(C(=O)Nc2nc3ccccc3s2)c1`, 12.6 µM [falling, partial curve]; for `CC(OC(=O)CNC(=O)c1ccc(Cl)c([N+](=O)[O-])c1)C(=O)NC1CCCCC1C` (stereo not given), 3.66 µM [falling, partial curve].
Take `COc1ccc(C(=O)N2N=C(c3cccs3)CC2c2ccccc2O)cc1` (stereo not given): the AC50 under setting [1] is 3.55 µM [rising, partial curve].
Consider `CC(Oc1ccc(Cl)cc1)C(=O)N/N=C/c1ccsc1` (stereo not given), for which the AC50 under setting [2] is 29.1 µM [falling, single point].
In the case of `CC(=O)NCCNc1nc2c(-c3cccc(C(F)(F)F)c3)nnn2c2ccccc12`, the AC50 under setting [1] was 17.8 µM [rising, partial curve, poor fit].
As to `N#Cc1c(C(F)(F)F)cc(-c2ccc(Cl)cc2)[nH]c1=O`, the AC50 under setting [1] is 29.1 µM [falling, single point].
On the same count and under the same terms, for `CCOC(=O)NC1(C(F)(F)F)C(=O)NC(C)=C1C#N` (stereo not given) the value was 1.03 µM [falling, full curve]; for `COc1cc(/C=N/Nc2cc(C)nc(NS(=O)(=O)c3ccccc3)n2)ccc1O`, 0.501 µM [rising, full curve]; for `COc1ccc(C(=O)Nc2ccc(N3CCCC3)cc2)cc1`, 0.731 µM [falling, full curve].
As to `COc1cc(/C=N/Nc2nc(Nc3ccccc3)nc(N3CCOCC3)n2)ccc1OC(=O)c1ccco1`, under setting [1], the AC50 is 7.08 µM [falling, partial curve].
Consider `O=C(O)/C(=N/NC(=O)c1ccc(Cl)cc1)c1ccccc1`, for which the AC50 under setting [1] is 0.112 µM [falling, full curve, poor fit].
As to `CCOC(=O)NC(=O)/C(C=Nc1ccc(Cl)c(Cl)c1Cl)=C(\C)O`, under setting [1], the AC50 is 14.6 µM [rising, partial curve, poor fit].
Regarding `Cc1ccc(Oc2nc3ccccc3n3c(C)nnc23)c(C)c1`, the concentration at half-maximal activity (AC50) under setting [1] is 29.1 µM [rising, single point].
In the case of `O=C(O)c1ccccc1OCc1nc2ccccc2s1`, under setting [1], the AC50 was 1 µM [rising, full curve, poor fit].
Turning to `CCOc1cccc(/C=N/NC(=S)Nc2cc(S(=O)(=O)N3CCOCC3)ccc2N2CCOCC2)c1O`, under setting [1], the AC50 was 29.1 µM [falling, single point].
Consider `COc1ccc(/C=C/C(=O)O)cc1S(=O)(=O)N1CCc2ccccc2C1`, for which, under setting [2], the concentration at half-maximal activity (AC50) is 31.6 µM [rising, partial curve, poor fit].
For `Cn1nc(C(=O)Nc2ccc(Br)cc2)cc1C(=O)Nc1ccc(Br)cc1`, the AC50 under setting [1] is 22.4 µM [rising, single point].
Still for that read-out and setting: for `COc1cccc(/C=C/C(=O)OCC(=O)c2cc(C)n(CC3CCCO3)c2C)c1OC` (stereo not given) the value was 16.4 µM [rising, partial curve, poor fit]; for `CCCc1ccc(C(=O)NNc2cccc(C)c2)cc1`, 0.1 µM [falling, full curve, poor fit]; for `O=C(OCC(=O)N1CCc2ccccc21)[C@@H]1CC(O)CN1S(=O)(=O)c1ccc(Cl)cc1` (stereo not given in full), 4.61 µM [rising, partial curve, poor fit].
Turning to `OC(c1cc(-c2ccc(C(F)(F)F)cc2)nc(C(F)(F)F)c1)C1CCCCN1` (stereo not given), the AC50 under setting [1] was 11.2 µM [falling, partial curve, poor fit].
